Source: US20220289816A1, “IMMUNOTHERAPY WITH B*07 RESTRICTED PEPTIDES AND COMBINATION OF PEPTIDES AGAINST CANCERS AND RELATED METHODS” (Immatics Biotechnologies GmbH, priority 2018, published 2022)

Assays:
[1] = tested on: tumor tissue samples and normal tissue samples (HLA-B*07 positive); assay: Identification and quantitation of tumor associated peptides presented on the cell surface (HLA immunoprecipitation, label-free LC-MS); set-up: species or system human; conditions: for Peptide Presentation on cancer entities: Table 8a, cancer entities on which the peptide was found presented (abbreviations in table head); for presentation on various cancer entities: HLA ligands of primary tumor tissue samples, LC-MS
[2] = tested on: source genes of the peptides (mRNA); assay: Expression profiling of genes encoding the peptides (RNAseq of tumor and normal tissue RNA); set-up: species or system human; conditions: for Gene Expression in tumor samples: very highly over-expressed (+++): tumor entities in which the source gene of the peptide is very highly over-expressed compared to a panel of normal tissues (RNAseq)
[3] = tumor entities in which the source gene of the peptide is over-expressed compared to a panel of normal tissues (RNAseq)
[4] = tumor entities in which the source gene of the peptide is highly over-expressed compared to a panel of normal tissues (RNAseq)
[5] = tumor types in which the peptide's source gene is highly over-expressed compared to a panel of normal tissues, RNAseq

Row | Substance | Peptide Presentation on cancer entities [1] | Gene Expression in tumor samples: over-expressed (+) [2, 3] | Gene Expression in tumor samples: very highly over-expressed (+++) [2] | Gene Expression in tumor samples: Highly over-expressed (++) [2, 4] | also measured
1 | 1: peptide found in KLK2 (gene looked up) (RPRSLQCVSL; listed as Homo sapiens) [compound 1] | PRCA | CLL | PRCA | – | –
2 | 3: peptide found in SLC6A3 (gene looked up) (MPYVVLTAL; listed as Homo sapiens) [compound 3] | RCC | NSCLCsquam, SCLC | HCC | NSCLCadeno | –
3 | 6: peptide found in MMP12 (gene looked up) (LPLNSSTSL; listed as Homo sapiens) [compound 6] | SCLC | BRCA, HCC, RCC | GBC, NSCLCother, NSCLCsqua; m,SCLC | CCC, CRC, GC, HNSCC, MEL, NHL, NSCLCadeno, OC, OSCAR, PACA, UBC, UEC | –
4 | 14: peptide found in MMP12 (gene looked up) (AVHEIGHSL; listed as Homo sapiens) [compound 14] | NSCLCadeno | HCC, RCC | CRC, GBC, HNSCC, NSCLCother, NSCLCsqua; m, OSCAR, SCLC, UBC | CCC, GC, MEL, NHL, NSCLCadeno, OC, PACA, UEC | –
5 | 15: peptide found in CYP4Z1 (gene looked up) (KPGFNISIL; listed as Homo sapiens) [compound 15] | BRCA | – | BRCA | – | –
6 | 16: peptide found in CYP4Z1 (gene looked up) (FPAPPAHWF; listed as Homo sapiens) [compound 16] | BRCA | – | BRCA | – | –
7 | 31: peptide found in KISS1R (gene looked up) (RPGPSDPAA; listed as Homo sapiens) [compound 31] | NSCLCadeno | NSCLCadeno, UEC | – | RCC | –
8 | 32: peptide found in PGR (gene looked up) (APMAPGRSPL; listed as Homo sapiens) [compound 32] | UEC | BRCA | – | UEC | –
9 | 33: peptide found in PGR (gene looked up) (LPRGLSPARQL; listed as Homo sapiens) [compound 33] | UEC | BRCA | – | UEC | –
10 | 34: peptide found in PGR (gene looked up) (APMAPGRSP; listed as Homo sapiens) [compound 34] | BRCA, UEC | BRCA | – | UEC | –
11 | 36: peptide found in FLT3 (gene looked up) (RPFSREMDL; listed as Homo sapiens) [compound 36] | AML, OC | – | – | AML | –
12 | 38: peptide found in FLT3 (gene looked up) (RPSFPNLTSF; listed as Homo sapiens) [compound 38] | AML, OC | – | – | AML | –
13 | 40: peptide found in MMP1 (gene looked up) (FPRTVKHIDAAL; listed as Homo sapiens) [compound 40] | CRC | CRC, GC, NSCLCadeno, PACA, UBC | – | HNSCC, NSCLCsquam, OSCAR | –
14 | 42: peptide found in CCL17 (gene looked up) (APLKMLAL; listed as Homo sapiens) [compound 42] | MEL, OC | – | – | NHL | –
15 | 43: peptide found in BMPR1B (gene looked up) (APTPRPKVL; listed as Homo sapiens) [compound 43] | BRCA | PRCA, UEC | – | BRCA | –
16 | 47: peptide found in DNTT (gene looked up) (RPRQTGALM; listed as Homo sapiens) [compound 47] | AML | – | – | AML | –
17 | 48: peptide found in BMPR1B (gene looked up) (RPRYSIGL; listed as Homo sapiens) [compound 48] | BRCA | PRCA, UEC | – | BRCA | –
18 | 60: peptide found in F5 (gene looked up) (RPYSIYPHGVTF; listed as Homo sapiens) [compound 60] | CCC, GBC, HCC | CCC | – | HCC | –

Row | Substance | Peptide Presentation on cancer entities [1] | Gene Expression in tumor samples: over-expressed (+) [2, 3] | Gene Expression in tumor samples: very highly over-expressed (+++) [2] | Gene Expression in tumor samples: Highly over-expressed (++) [2, 4] | also measured
19 | 62: peptide found in F5 (gene looked up) (KPQSTISGL; listed as Homo sapiens) [compound 62] | – | CCC | – | HCC | –
20 | 66: peptide found in NMUR2 (gene looked up) (LPMTVISVL; listed as Homo sapiens) [compound 66] | GBC | PACA, UEC | – | – | –
21 | 86: peptide found in SLC6A3 (gene looked up) (ALLLRGVTL; listed as Homo sapiens) [compound 86] | SCLC | NSCLCsquam, SCLC | RCC | NSCLCadeno | –
22 | 88: peptide found in MMP26 (gene looked up) (KPSAVKDSIY; listed as Homo sapiens) [compound 88] | HNSCC, RCC | – | UEC | PRCA, SCLC | –
23 | 90: peptide found in MMP1 (gene looked up) (HAIEKAFQL; listed as Homo sapiens) [compound 90] | CRC | CRC, MEL, NSCLCadeno, PACA | HNSCC | – | –
24 | 186: peptide found in GRP (gene looked up) (VPLPAGGGTVLT; listed as Homo sapiens) [compound 186] | – | – | – | SCLC | –
25 | 198: peptide found in SIGLEC15 (gene looked up) (LPSPAHAFRAL; listed as Homo sapiens) [compound 198] | – | HCC, MEL, NHL, OC, PACA, UEC | – | UBC | –
26 | 213: peptide found in SIGLEC8 (gene looked up) (RPYQDAPVA; listed as Homo sapiens) [compound 213] | – | NHL, RCC | – | GBM | –
27 | 248: peptide found in EGFR (gene looked up) (KPYDGIPAS; listed as Homo sapiens) [compound 248] | – | – | – | GBM | –
28 | 265: peptide found in LOXL3 (gene looked up) (FPRKPYEGRV; listed as Homo sapiens) [compound 265] | – | – | – | MEL | –
29 | 277: peptide found in HCAR1 (gene looked up) (MPPLLIVAF; listed as Homo sapiens) [compound 277] | – | UBC | – | BRCA | –
30 | 360: peptide found in CD70 (gene looked up) (SPASRSISLL; listed as Homo sapiens) [compound 360] | – | AML, GC, HNSCC, OC, OSCAR | RCC | CLL, NHL | –
31 | 369: peptide found in CD70 (gene looked up) (RPYGCVLRAA; listed as Homo sapiens) [compound 369] | – | AML, CCC, GBC, GC, HNSCC, OC, OSCAR | RCC | CLL, NHL | –
32 | 381: peptide found in TGFBR1 (gene looked up) (APRPRLLLL; listed as Homo sapiens) [compound 381] | – | CCC, GBC, MEL | – | – | –
33 | 452: peptide found in ENPP3 (gene looked up) (QPVKKNTL; listed as Homo sapiens) [compound 452] | – | – | – | – | Gene Expression in tumor samples: Highly over-expressed (++) [2, 5]: RCC; Gene Expression in tumor samples: over-expressed (+) ([2]; tumor types in which the peptide's source gene is over-expressed compared to a panel of normal tissues, RNAseq): HCC, UEC
34 | 458: peptide found in ENPP3 (gene looked up) (VPIPTHYFVVL; listed as Homo sapiens) [compound 458] | – | – | – | – | Gene Expression in tumor samples: Highly over-expressed (++) [2, 5]: RCC
35 | SEQ ID No. 22 (LPQLKPAL; listed as Homo sapiens) | – | – | – | – | presentation on various cancer entities [1]: head and neck squamous cell carcinoma and esophageal cancer
36 | SEQ ID No. 34: peptide found in PGR (gene looked up) (APMAPGRSP; listed as Homo sapiens) | – | – | – | – | presentation on various cancer entities [1]: breast cancer and uterine and endometrial cancer

For some assays here: Expression values are those of the mRNA of the gene that encodes the peptide; a gene is named only where it was looked up.
